This series in a line: general procedure: solution-phase peptide synthesis; azide process; mixed anhydride process; OSu active esters.

Strings that start with PEPTIDE1 are HELM notation: dots part the residues, brackets hold end groups and non-standard residues. Starred links: 1 amine or outer side, 2 acyl side, 3 side chain; linkers in the order of their positions; H or OH if unused. Non-standard residues stand in square brackets, D forms with d. *: point of attachment. pGlu = O=C1CC[C@@H](C(=O)O)N1; Suc = O=C(CCC(=O)[*:2])[*:1]; Boc = CC(C)(C)OC(=O)*

The values that follow come from patent US4530836A (Amano Pharmaceutical Co., Ltd., priority 1983, dated 1985).

For the substance Boc-M[dW]WMDF-NH2, the step yield (coupling step) is on record as 76.7%.
The substance “Boc-β-Ala-Asp-Tyr-Met-Gly-Trp-Met-Asp-Phe-NH2” had a step yield (coupling step) of 79.1%.
On to “PEPTIDE1{[Glt].A.[Tyr(SO3H)].G.W.M.D.F.[am]}$$$$V2.0”, for which the step yield (late stage modification step) was 50.2%.
For “PEPTIDE1{G.D.[Tyr(SO3H)].M.G.W.M.D.F.[am]}$$$$V2.0”, under “late stage modification step”, the step yield is listed as 50.8%.
On to Boc-MGWMD-NH2, for which the step yield (coupling step) is given as 93.1%.
“PEPTIDE1{[pGlu].A.[Tyr(SO3H)].G.W.M.D.F.[am]}$$$$V2.0”: the step yield (late stage modification step) worked out at 52.2%.
As to Boc-YM[dA]WMDF-NH2, the step yield (coupling step) came to 71.5%.
In turn, “Pht-Tyr(SO3 H)-Met-D-Trp-Trp-Met-Asp-Phe-NH2” displayed a step yield (late stage modification step) of 37.6%.
With “Suc-Tyr(SO3 H)-Met-D-Ala-Trp-Met-Asp-Phe-NH2”, the step yield (late stage modification step) is given as 54.9%.
With “PEPTIDE1{[Suc].[Tyr(SO3H)].M.[dW].W.M.D.F.[am]}$$$$V2.0”, where the note is “late stage modification step”, the step yield was 50.9%.
Take Suc-YMGWM-NH2: the step yield runs as follows: (late stage modification step, run 1) 77.1%; (late stage modification step, run 2) 72.8%.
The substance Pht-Tyr-Met-D-Trp-Trp-Met-Asp-Phe-NH2 returned a step yield (late stage modification step) of 97.4%.
On to “PEPTIDE1{[Suc].[Tyr(SO3H)].M.G.W.M.D.[am]}$$$$V2.0”, for which the step yield (late stage modification step) came out at 63.6%.
Where the note is “coupling step”, “Boc-Gly-Asp-Tyr-Met-Gly-Trp-Met-Asp-Phe-NH2” had a step yield of 79.5%.
“PEPTIDE1{[Glt].[Tyr(SO3H)].M.[dW].W.M.D.F.[am]}$$$$V2.0”: for the setting “late stage modification step”, the step yield was 49.3%.
Substance Boc-M[dA]WMDF-NH2 showed a step yield (coupling step) of 69.2%.
On to Suc-YM[dW]WMDF-NH2, for which, where the note is “late stage modification step”, the step yield was 92.8%.
Same read-out and setting: as for “PEPTIDE1{[bAla].D.[Tyr(SO3H)].M.G.W.M.D.F.[am]}$$$$V2.0”, the figure is 50.1%; as for Suc-YM[dA]WMDF-NH2, 95.8%.
For the setting “coupling step”, Boc-YMGWM-NH2 displayed a step yield of 63.1%.
For Boc-MGWM-NH2, under “coupling step”, the step yield is listed as 74.9%.
Where the note is “coupling step”, Boc-D-Trp-Trp-Met-Asp-Phe-NH2 gave a step yield of 61.1%.
With Glt-Ala-Tyr-Gly-Trp-Met-Asp-Phe-NH2, the step yield (late stage modification step) is on record as 76.1%.
For [pGlu]AYGWMDF-NH2, the step yield (coupling step) was 84.1%.
For the substance Glt-Tyr-Met-D-Trp-Trp-Met-Asp-Phe-NH2, the step yield (late stage modification step) is listed as 83.9%.
Under “coupling step”, Boc-YM[dW]WMDF-NH2 gave a step yield of 85.2%.
In the case of Boc-D-Ala-Trp-Met-Asp-Phe-NH2, for the setting “coupling step”, the step yield was determined as 96.2%.
Under “coupling step”, Boc-YMGWMD-NH2 returned a step yield of 86.5%.
The substance “PEPTIDE1{[Suc].[Tyr(SO3H)].M.G.W.M.[am]}$$$$V2.0” displayed a step yield (late stage modification step) of 50.0%.
